# Assay results from PubChem BioAssay AID504467 (National Center for Advancing Translational Sciences (NCATS), 2011).
# “And” between values parts separate entries of the source, which are not always exact repeats. Identical values can stand only once. Among all 330,000 compounds or so, about 7,700 (2.3%) were called active. The shares of active, inactive and inconclusive entries below differ from those in the screen. The call rests on the fitted dose curve; in most records, active means well fitted inhibition curve with a large enough effect; inconclusive means small, poorly fitted or top-dose-only effect, or effect the other way; inactive means flat fitted curve, though single readings scatter. Potencies of inconclusive entries are doubtful fits and often do not repeat.
# Experiment: qHTS screen for small molecules that inhibit ELG1-dependent DNA repair in human embryonic kidney (HEK293T) cells expressing luciferase-tagged ELG1; further: nearly all actives have a fitted effect of over 55% in size
# Conditions: HEK293T ELG1-luciferase reporter, luminescence, 16 h, DNA damage induced by 5-fluorouridine; activity change, negative = inhibition: at 46.1 µM (top of the series)
# Summary of the method: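 Quantitative HTS, concentration-response format. 2,000 cells/well co-treated with 5-fluorouridine and compound, 16 hr in 5% CO2 at 37 °C; ONE-Glo luminescence read after 30 min.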
# On the % scale 0 is the no-effect control and ±100 the full control effect; potency means the concentration at half of the fitted maximal effect.
Structure (SMILES),Potency,"activity change, negative = inhibition"
CC(C)C(=O)c1cn(Cc2ccccc2C#N)c2ccccc12,"inconclusive: 23.1 µM [inhibitor, single point]",
CN(C)C(=O)Oc1ccc(OC(=O)N(C)C)cc1,"inconclusive: 16.4 µM [activator, partial curve, poor fit]",
O=C(COC(=O)Cc1ccccc1)Nc1ccc(SC(F)F)cc1,,inactive: 5.8%
O=C(NCC(c1cccs1)N1CCOCC1)c1cc([N+](=O)[O-])cc([N+](=O)[O-])c1 (stereo not given),"inconclusive: 0.116 µM [activator, single point]",
CN1C(=O)C(Cc2ccc(OCc3ccccc3)cc2)C(=O)N(C)C1=O,"inconclusive: 25.9 µM [activator, partial curve]",
CC1CN=C(Nc2ccc(F)c(Cl)c2)S1 (stereo not given),"inconclusive: 25.9 µM [activator, partial curve, poor fit]",
CCOP(=O)(OCC)Oc1cc(C)c(N(C)C)c(C)c1,,inactive: -1.82%
C[n+]1ccc(-c2ccccc2)c2ccccc21,,inactive: 2.11%
CN1CCN(c2ncnc3ccc(Br)cc23)CC1,active: 9.2 µM,
Fc1ccc(-c2nc3c(-c4ccc(F)cc4)cnn3cc2CCN2CCOCC2)cc1,"inconclusive: 20.6 µM [inhibitor, single point]",
CC(C)(C)c1ccc(C(=O)C2CCCN(C3CCC3)C2)cc1 (stereo not given),,inactive: 17.9%
Cc1sc(-n2c(C)cc(C=C3C(=O)NC(=O)NC3=O)c2C)c(C#N)c1C,"inconclusive: 18.4 µM [activator, single point]",
NS(=O)(=O)c1ccc(NC(=O)Nc2ccccc2)cc1,"inconclusive: 29.1 µM [activator, single point]",
CCC(=NCc1ccc(F)cc1)c1c(O)n(C)c(=O)n(C)c1=O,active: 7.94 µM,
COc1ccc(OCC(=O)N2CCN(Cc3nc4cc([N+](=O)[O-])ccc4n3C)CC2)cc1,"inconclusive: 25.9 µM [inhibitor, partial curve]",
COC(=O)Cn1cc(C(=O)c2ccccc2F)c2ccccc21,,inactive: 1.92%
C#C[C@]1(O)CC[C@H]2[C@@H]3CCC4=Cc5nc6nc7ccccc7n6cc5C[C@]4(C)[C@H]3CC[C@@]21C,active: 7.94 µM,
CCOP(=S)(OCC)N1CCOCCOCCN(P(=S)(OCC)OCC)CCOCCOCC1,,inactive: -19%
CCOP(=O)(OCC)c1nc(-c2cccc3ccccc23)oc1N1CCCCC1,active: 23.1 µM,
FC(F)(F)c1cccc(NC2=NCCCS2)c1,,inactive: -13.5%
CC1(C)CC2CC(C)(CN2S(=O)(=O)c2cccc(C(=O)OCC(=O)NC(N)=O)c2)C1 (stereo not given),"inconclusive: 1.03 µM [activator, full curve, poor fit]",
CC1CCN(C(=O)c2ncn(C)c2C(=O)N2CCC(C)CC2)CC1,"inconclusive: 3.26 µM [activator, partial curve]",
CCN(CC)C(=O)c1ccc(NC(=O)c2cccc(S(=O)(=O)N3CCN(Cc4ccccc4)CC3)c2)cc1,"inconclusive: 13 µM [inhibitor, partial curve]",
Cc1ccc(NC2=NCCCS2)c(C)c1C,,inactive: -18.1%

Structure (SMILES),Potency,"activity change, negative = inhibition"
CN1CCN(c2ccc([N+](=O)[O-])c3no[n+]([O-])c23)CC1,active: 3.26 µM,
COC(=O)C1=C(c2ccc(OC(F)(F)F)cc2)C[C@@H]2CC[C@H]1N2C(=O)NCCc1ccccc1,"inconclusive: 32.6 µM [inhibitor, single point]",
C[C@H]1COC(=O)[C@H](Cc2ccc(F)cc2)CC/C=C/C[C@@H](CC(=O)N(CCO)Cc2ccccc2)C(=O)N1,"inconclusive: 16.4 µM [inhibitor, single point]",
C[C@]12CC[C@H](O)C[C@H]1CC[C@@H]1C2CC[C@]2(C)[C@@H](C3=CC(=O)OC3)[C@@H](O)C[C@]12O (stereo not given in full),"inconclusive: 2.06 µM [inhibitor, full curve, poor fit]",
CC(C)CCn1c(N)c(C(=O)NCc2cccs2)c2nc3ccccc3nc21,active: 6.51 µM,
COc1ccc(N=Cc2c(O)n(C)c(=O)n(C)c2=O)cc1,,inactive: -6.15%
O=S(=O)(Nc1ccc(-c2nc3ccccc3o2)cc1)c1ccccc1,"inconclusive: 18.4 µM [activator, single point]",
CC(C)CN1CCN(Cc2cccc3c2OCO3)CC1CCO (stereo not given),"inconclusive: 16.4 µM [inhibitor, single point]",
CCN(CC)C(=O)Oc1ccc2cc(Br)ccc2c1,"inconclusive: 18.4 µM [activator, single point]",
CCOC(=O)c1c(C)n(Cc2ccccc2)c2ccc(OCC(O)Cn3nc(C)cc3C)cc12 (stereo not given),active: 20.6 µM,
CCCCCn1c(=O)c(C(=O)Nc2ccccc2S(N)(=O)=O)c(O)c2ccccc21,"inconclusive: 16.4 µM [activator, partial curve]",
CC(C)Oc1cc(-n2c(=S)[nH]c3ccccc3c2=O)c(Cl)cc1Cl,,inactive: 13.6%
CC(NCc1ccc(Cl)cc1Cl)C(O)c1ccccc1 (stereo not given),"inconclusive: 7.08 µM [activator, partial curve, poor fit]",
O=C(c1ccc(Cl)cc1)C1CCCN(Cc2cccc3cnccc23)C1 (stereo not given),"inconclusive: 29.1 µM [inhibitor, single point]",
COc1ccc(/C=N\N=C(N)N)cc1,"inconclusive: 5.8 µM [inhibitor, partial curve, poor fit]",
CC[C@@]1(O)C(=O)OCc2c1cc1n(c2=O)Cc2cc3ccccc3nc2-1,"inconclusive: 2.91 µM [inhibitor, full curve]",
c1ccc(CCN2CCC(N3CCN(c4ccccc4)CC3)CC2)cc1,,inactive: 21.4%
O=C1NC(=O)C(=Cc2ccc(-c3cc(Cl)ccc3[N+](=O)[O-])o2)C(=O)N1,,inactive: 6.1%
COC(=O)C1=C(c2ccc(-c3ccccc3)c(F)c2)C[C@@H]2CC[C@H]1N2C(=O)NCCO,,inactive: -2.67%
Cc1ccc(S(=O)(=O)N(C)CCCC(=O)N2CCN(c3ccccn3)CC2)cc1,active: 18.4 µM,
CN(C)[C@@H]1C(=O)C(C(N)=O)=C(O)[C@@]2(O)C(=O)C3=C(O)c4c(O)ccc(Cl)c4[C@@](C)(O)[C@H]3C[C@@H]12,,inactive: -4.64%
O=C1c2ccccc2C(=O)c2c1ccc1c(=O)n(-c3ccccc3)[nH]c21,"inconclusive: 20.6 µM [inhibitor, partial curve, poor fit]",
O=C(COc1ccc2ccc(=O)oc2c1)N1C[C@H]2C[C@@H](C1)c1cccc(=O)n1C2,,inactive: -19.4%
Cn1cccc1/C=C1\C(=O)NC(=O)N(Cc2ccccc2Cl)C1=O,"inconclusive: 29.1 µM [activator, partial curve, poor fit]",

Structure (SMILES),Potency,"activity change, negative = inhibition"
Cc1ccc(N2C(=O)CC(=O)NC2=O)c(C)c1,,inactive: 18.6%
Cc1cc(OCC(=O)NC(Cc2ccc(Cl)cc2)C(=O)O)c2c3c(c(=O)oc2c1)CCCC3 (stereo not given),,inactive: 0%
CC(=O)Nc1ccccc1C(=O)OCC(=O)c1ccc2c(c1)OCCO2,"inconclusive: 29.1 µM [activator, single point]",
C[C@H]1CC2C3CC=C4C[C@@H](O)CC[C@]4(C)C3CC[C@]2(C)[C@H]1O (stereo not given in full),,inactive: -17.2%
O=P(Nc1cccc(F)c1)(Oc1ccccc1F)Oc1ccccc1F,"inconclusive: 20.6 µM [inhibitor, single point]",
CCOc1cc(N2CCOCC2)c(OCC)cc1NC(=O)C1=NN(c2cccc(C)c2)C(=O)CC1,"inconclusive: 4.61 µM [inhibitor, partial curve, poor fit]",
CCOC(=O)C1(CCOc2ccccc2)CCN(Cc2ccc(C)s2)CC1,"inconclusive: 29.1 µM [inhibitor, single point]",
Nc1c(C(=O)NCC2CCCO2)c2nc3ccccc3nc2n1Cc1ccco1 (stereo not given),active: 23.1 µM,
CNC(=O)Oc1cccc(-c2cn3cc(Cl)ccc3n2)c1,"inconclusive: 5.8 µM [activator, single point]",
Cc1cccc(NP(=O)(Oc2ccccc2F)Oc2ccccc2F)c1C,"inconclusive: 29.1 µM [inhibitor, single point]",
CCN(CC)Cc1c[nH]c2ccccc12,"inconclusive: 25.9 µM [activator, single point]",
CCCCn1c(=O)c(C(=O)NCc2ccc(Cl)cc2)c(O)c2ccccc21,,inactive: -19.5%
Cc1cc([N+](=O)[O-])c2ccccc2[n+]1[O-],"inconclusive: 9.2 µM [inhibitor, partial curve]",
O=c1[nH]c(=O)n(Cc2ccccc2)c(O)c1C=NCCCO,"inconclusive: 3.26 µM [activator, partial curve, poor fit]",
COc1ccc(NC(=O)c2ccc(NC(=O)c3nc4nccc(C)n4n3)cc2)cc1,"inconclusive: 11.6 µM [activator, partial curve]",
c1ccc2c(CCNC3=NCCC3)c[nH]c2c1,,inactive: 3.37%
O=C(NCc1cc(C(F)(F)F)ccc1Cl)c1cccc2c1C(=O)c1ccc(Cl)cc1S2(=O)=O,"inconclusive: 29.1 µM [activator, partial curve, poor fit]",
COCCCN1CCN(c2nnc3n2-c2sc(Br)cc2C(c2ccccc2Cl)=NC3)CC1,,inactive: 7.4%
CCOC(=O)C1=C(NC(=S)NC(=O)c2ccccc2)c2ccccc2CC12CCCC2,"inconclusive: 29.1 µM [inhibitor, single point]",
CCN(CC)CCO,,inactive: 15.9%
CC(=O)[C@H]1CC[C@H]2[C@@H]3CCC4=CC(=O)CC[C@]4(C)[C@H]3CC[C@]12C,"inconclusive: 35.5 µM [inhibitor, single point] and inconclusive: 20.6 µM [inhibitor, single point]",
CC(=O)N1CCN(c2ccc(OC[C@H]3CO[C@](Cn4ccnc4)(c4ccc(Cl)cc4Cl)O3)cc2)CC1,"inconclusive: 14.6 µM [inhibitor, partial curve]",
